We go through two compounds from EP2177496A1, “New analogs of polysphorin and uses thereof for treating or preventing malaria” (Assistance Publique - Hôpitaux de Paris, priority 2008, dated 2010).

Molecules are shown by their SMILES.

This data set can be described thus: in vitro. The note with it: human, hepg2 cells, TC50 (µM) Hepatic stage (rodent) P. yoelii. Here is the method:
A preliminary screening was performed consisting in the infection of human CD81 transfected hepatocarcinome cell line HepG2 (HepG2/CD81) with P. yoelii. IC50 (inhibiting concentration 50), TC50 (toxic concentration 50) and TI (therapeutic index, ratio TC50/IC50) were estimated for each drug tested. Selected molecules (small IC50, high TC50 and high TI) were analyzed in human hepatocytes. Briefly, HepG2 cells were plated in 96-well plates for 24 h prior to inoculation with 1x10^4 of P. yoelii sporozoites. Sporozoites-inoculated culture plates were centrifuged for 5 min at 1,500 rpm at 4°C in order to enhance the infection rate as described by Gruner (Gruner et al., 2005). After 3h at 37°C, the cultures were washed and further incubated in fresh medium for 48 h (P. yoelii) before quantification of infected cells in triplicate wells.
Toxicity was determined by using the colorimetric 3-(4,5-dimethylthiazol-2-yl)-2,5-diphenyltetrazolium bromide (MTT) assay (Mosman., 1983). Briefly, HepG2 cells cultures were prepared in 96-well plates as described above. Drugs were tested in triplicate wells at eight concentrations ranging from 6.4 × 10^-3 µM to 200 µM. […] The plates were read in an enzyme-linked immunosorbent assay plate reader (550-nm absorbance wavelength and 620-nm reference wavelength). The results were expressed as the percent change in viability compared to drug-free control cultures. […]

A word on the CC50: it is the concentration giving 50% cytotoxicity. Low readings indicate harm at low concentration, high ones better tolerance by the cells. On to `C/C=C/c1cc(OC)c(O[C@H](C)[C@@H](O)c2cc(OC)c(OC)c(OC)c2)c(OC)c1` (relative stereo) [Polysphorin anti, reference compound], for which the CC50 worked out at 91.7 µM. Then `C/C=C/c1cc(OC)c(O[C@@H](C)[C@@H](O)c2cc(OC)c(OC)c(OC)c2)c(OC)c1` (relative stereo) [Polysphorin syn, reference compound], with 96.5 µM.
